{"source": "paper PMC4409310", "tested_on": "His-NHR subunit of heterodimer + Trx-NHR subunit of heterodimer", "experiment": "EMSA", "conditions": "5 mM Mg2+, mixed-tag heterodimer; EMSA: 25 mM HEPES-KOH pH 8.0, 25 mM NH4Cl, 5 mM MgCl2, 5 mM DTT, 4 C, 1 h, 6-10 uM RNA; recombinant protein; protein details: N-terminal His6,N-terminal thioredoxin-His", "note": "For at least one entry, the source does not settle the construct or the ends of the probe."}
{"sequence": "GGAUGUUGGCUUAGAAGCAGCCAUCAUUU [29 nt RNA wt A1067]", "values": [{"measurement": "binding result", "value": "binds"}]}
